Experimental data from patent US11674952B2, “Embryonic cell-based therapeutic candidate screening systems, models for Huntington's Disease and uses thereof” (The Rockefeller University, priority 2016, dated 2023).
“Also recorded” adds a separate entry of the source. At least one compound was matched to its structure with a doubt left.

Tested on: RUES2-Q150 cells
Experiment: Germ layer micropattern screen: BMP4-differentiated hESC colonies, reversion of the HD-dependent micropattern signature
Assay type: cell-based, human
Details: minoxidil 10 μM for 2-24 hours prior to BMP4 addition
From the text: Micropattern cultures were established according to methods described in Warmflash et al., Nature Methods. 2014 August: 11(8):847-854. This procedure is briefly described in Materials and Methods.
Cells confined to circular micropatterns and differentiated with BMP4 produce an ordered array of germ layers along the radial axis of the colony. This order results from self-organized signaling which confines response to the BMP4 to the colony border while inducing a broader gradient of Activin/Nodal signaling to pattern mesendodermal fates. Control of fates is established from the border of the colony so that as colony size is reduced the central fates are lost. Thus, given minimal geometric and signaling cues, hESCs will self-organize to generate embryonic patterns such as those of the human gastrula.
The Applicants next applied micropattern technology to the isogenic hESC lines for Huntington's Disease. […]
The spatial expression of germ markers Sox2, Bra, and Cdx2 was compared between RUES2 and RUES2-Q150 cells (FIG. 6). […] Tri dimensional geometry was evaluated by first generating images of cells at different focal planes known as “Z-stacks”. […]

Compound: Nc1cc(N2CCCCC2)nc(N)[n+]1[O-] [minoxidil]
- rescue of HD-dependent micropattern signature (SOX2+ area; Sox2 and Bra/Cdx2 territories): reduced or reverted HD-dependent micropattern signature; also recorded: restore the HD-dependent micropattern signature; also recorded: at least partially rescued; also recorded: partially but significantly rescues the HD micropattern phenotype
